Data from paper PMC8392014.
No constants are given. Whether binding was seen depends on the method and setting. Some entries that bind do so weakly or less than the wild type.

Sequences of proteins named here, by UniProt entry; tags and fusion partners are left off. Residues count along the entry.
UniProt P12579, residues 161-241: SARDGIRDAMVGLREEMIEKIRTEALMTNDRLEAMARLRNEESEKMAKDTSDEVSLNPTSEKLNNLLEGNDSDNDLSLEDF
UniProt P03418: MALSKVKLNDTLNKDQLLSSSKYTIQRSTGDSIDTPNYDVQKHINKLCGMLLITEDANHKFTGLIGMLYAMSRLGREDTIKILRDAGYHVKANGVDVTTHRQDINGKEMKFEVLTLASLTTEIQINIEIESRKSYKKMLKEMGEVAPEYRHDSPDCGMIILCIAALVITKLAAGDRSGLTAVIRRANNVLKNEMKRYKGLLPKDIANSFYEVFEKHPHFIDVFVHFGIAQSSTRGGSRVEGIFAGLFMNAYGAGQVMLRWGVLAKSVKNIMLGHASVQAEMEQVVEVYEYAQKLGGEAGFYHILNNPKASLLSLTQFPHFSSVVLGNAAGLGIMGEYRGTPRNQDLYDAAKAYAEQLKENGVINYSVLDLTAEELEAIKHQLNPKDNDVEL

Target: RSV phosphoprotein fragment P_(161–241) (respiratory syncytial virus (RSV)) (UniProt P12579)
Experiment: NMR titration; N-RNA rings added to P161-241 in the presence of garcinol; the read-out is not named in the sentence (garcinol mixtures were analysed by NMR, 293 K for P161-241); both purified

## RSV N protein in the form of N-RNA rings (from UniProt P03418 1-391)
  binding: binds
